Test results from US7259140B2, “Heparin-binding peptides and uses thereof” (Thomas Jefferson University, priority 2003, dated 2007).
Some of these results come from one statement about several compounds together. Some ranges recur; such a range may be that of the whole group of compounds. Ends that are not written are not given here.

Assays:
[1] = test system: unfractionated heparin (thrombin-induced clot formation); experiment: Thrombin neutralization assay: clotting time of citrated plasma in the presence of unfractionated heparin; format: biochemical, human; conditions: UFH 0.5 IU anti-thrombin activity/ml
Method: It was determined whether heparin-binding peptides of the invention can neutralize unfractionated heparin using the thrombin neutralization assay. The six peptides that were synthesized and used in this Example are: (ARKKAAKA)3VLVLVLVL (SEQ ID NO:5); (ARKKAAKA)(A16)(ARKKAAKA) (SEQ ID NO:30); (ARKKAAKA)4 (SEQ ID NO:31); (AKKARA)6 (SEQ ID NO:32); (ARKKAAKA)3(ARKKCAKA) (SEQ ID NO:33); and cyclized C(ARKKAAKA)4C (SEQ ID NO:34); Citrated plasma was pipetted into a glass tube. Thrombin was added, the tube was manually rotated, and clotting time was determined by observation of clot formation. Normal clotting time is 19-22 seconds.
As a control, to assess the effect of heparin on clot formation, unfractionated heparin was added to the plasma at 0.5 IU anti-thrombin activity/ml and then thrombin was added. Clotting time in the presence of heparin alone was greater than 3 minutes.
To test the effect of peptides, heparin and six peptides at the concentrations indicated in Table 4 were added to the plasma, the mixture was allowed to stand at room temperature for 1 minute, and thrombin was added. The time for the clot to form is indicated. Experiments were performed using plasma from three volunteers—A, B, and C.

[2] = test system: anti-Factor Xa Activity of the Low Molecular Weight Heparin Lovenox ®; experiment: Anti-Factor Xa assay (Stachrom Heparin kit): neutralization of Lovenox in citrate or plasma in vitro; format: biochemical, human; conditions: 12 μg/ml; plasma
Method: The ability of peptides such as (ARKKAAKA)3VLVLVLVL (SEQ ID NO:5) to neutralize the anti-Factor Xa activity of UFH and LMWH in vitro was tested using the Stachrom Heparin kit (Diagnostica Stago), a standard hematology laboratory assay used to measure the anti-Factor Xa activity of heparin. The assay was performed using the low molecular weight heparin enoxaparin sodium (Lovenox®, Aventis Pharmaceuticals, Inc.), unfractionated heparin (UFH), or the non-heparin glycosaminoglycan danaparoid sodium (Orgaran®, Organon Inc., West Orange, N.J.) in 0.32% citrate or in plasma anticoagulated with 0.32% citrate. Enoxaparin is commonly used clinically as a low molecular weight heparin (LMWH). Danaparoid is commonly used clinically as a non-heparin glycosaminoglycan anticoagulant. Currently, the only FDA approved drug to target UFH is protamine, which is not effective in vivo against LMWH or a non-heparin glycosaminoglycan such as danaparoid. Buffer and ATIII are added to form the heparin/ATIII complex, peptide is added, then Factor Xa, reporter dye substrate for Factor Xa activity, and stop solution, and the dye concentration is read at 405 nm. The absorbance of the dye increases with increasing Factor Xa activity, and thus is inversely proportional to the heparin (anti-Factor Xa activity) concentration. Peptides were tested in plasma obtained from three volunteers (A, B, and C). Platelet function inhibitors PG12 and theophylline were added to the blood immediately upon collection.
Results. […] (ARKKAAKA)3VLVLVLVL (SEQ ID NO:5) and VLVL(ARKKAAKA)3ARKKCAKA (SEQ ID NO:38) were able to neutralize about 0.4 U/ml anti-Factor Xa activity of LMWH at a concentration of 12 μg/ml, which would be an effective dose for patients. (AKKARA)6 (SEQ ID […]), (ARKKAAKA)4 (SEQ ID NO:31) and (ARKKAAKA)3ARKKCAKA […] 0.3-0.35 U/ml. In contrast, 12 μg protamine only neutralized about 0.25 U/ml of LMWH under these conditions.

ARKKAAKAARKKAAKAARKKAAKAARKKAAKA [(ARKKAAKA)4]
peptide concentration that totally neutralizes heparin in thrombin-induced clot formation [1]: 4.0 to 5.0 µg/mL
anti-Factor Xa activity of LMWH neutralized [2]: 0.3-0.35 U/ml

ARKKAAKAARKKAAKAARKKAAKAVLVLVLVL [(ARKKAAKA)3VLVLVLVL]
peptide concentration that totally neutralizes heparin in thrombin-induced clot formation [1]: 4.0 to 5.0 µg/mL
